Source: patent US20170340700A1
No constants are given. Whether binding was seen depends on the method and setting. Binding seen in cells or lysates may run through a third protein. Some entries that bind do so weakly or less than the wild type. One block for each molecule: values may come before it.

Tests used:
[1] = target: T1, FRA1 (UniProt P15407); test: coimmunoprecipitation with anti-cJUN antibody from MB231 nuclear extracts, Western blot for FRA1
T1 sequence (looked up): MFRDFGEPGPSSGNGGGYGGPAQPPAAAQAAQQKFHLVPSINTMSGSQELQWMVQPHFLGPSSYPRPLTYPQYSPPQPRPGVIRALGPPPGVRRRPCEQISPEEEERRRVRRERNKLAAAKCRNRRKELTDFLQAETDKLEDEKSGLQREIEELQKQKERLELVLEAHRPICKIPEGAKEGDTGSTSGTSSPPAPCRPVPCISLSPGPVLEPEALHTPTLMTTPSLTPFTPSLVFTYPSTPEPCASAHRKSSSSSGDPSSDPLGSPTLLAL

[2] = target: T2, FBJ murine osteosarcoma viral oncogene homolog B (FOSB) (human), P53539; test: coimmunoprecipitation with anti-cJUN antibody from nuclear extracts of TP4-treated MB231 cells, Western blot for FOSB; conditions: remark: other sources report otherwise
T2 chain: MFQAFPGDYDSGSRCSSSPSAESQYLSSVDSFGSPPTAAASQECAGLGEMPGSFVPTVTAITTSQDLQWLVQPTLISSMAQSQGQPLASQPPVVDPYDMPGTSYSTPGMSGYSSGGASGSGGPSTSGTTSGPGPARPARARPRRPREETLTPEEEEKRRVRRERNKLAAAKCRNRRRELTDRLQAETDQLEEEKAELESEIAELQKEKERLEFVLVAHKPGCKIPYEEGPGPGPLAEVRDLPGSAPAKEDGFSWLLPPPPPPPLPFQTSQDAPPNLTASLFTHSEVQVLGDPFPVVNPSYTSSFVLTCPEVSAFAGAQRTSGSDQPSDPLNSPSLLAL

- binding [1]: binds
Molecule: c-JUN (from UniProt P05412 1-331)

- binding [2]: binds
B1: c-JUN, P05412 1-331 (protein, UniProt P05412 1-331, looked up)
chain: MTAKMETTFYDDALNASFLPSESGPYGYSNPKILKQSMTLNLADPVGSLKPHLRAKNSDLLTSPDVGLLKLASPELERLIIQSSNGHITTTPTPTQFLCPKNVTDEQEGFAEGFVRALAELHSQNTLPSVTSAAQPVNGAGMVAPAVASVAGGSGSGGFSASLHSEPPVYANLSNFNPGALSSGGGAPSYGAAGLAFPAQPQQQQQPPHHLPQQMPVQHPRLQALKEEPQTVPEMPGETPPLSPIDMESQERIKAERKRMRNRIAASKCRKRKLERIARLEEKVKTLKAQNSELASTANMLREQVAQLKQKVMNHVNSGCQLMLTQQLQTF
